Data: publication doi:10.1101/594382
No constants are given. Whether binding was seen depends on the method and setting. Binding calls can cover weak binding; strength is not graded here.

Molecular target: T1, Bacillus subtilis FolE, zinc dependent GTP cyclohydrolase (B. subtilis) (UniProt P19465)
T1 sequence: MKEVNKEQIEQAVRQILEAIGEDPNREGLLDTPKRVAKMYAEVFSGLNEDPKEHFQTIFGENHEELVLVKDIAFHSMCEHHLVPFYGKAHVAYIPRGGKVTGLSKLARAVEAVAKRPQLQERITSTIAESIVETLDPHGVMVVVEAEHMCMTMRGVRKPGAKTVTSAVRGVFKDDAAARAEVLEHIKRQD
Assay: two-hybrid

Acinetobacter baylyi ZagA homolog (A. baylyi)
binding: binds
